Consider 4 sequences from publication PMC3871824.

For some assays here: The comparison behind a weaker result is the experiment's own reference, which may not be listed here. For some assays here: Tags and fusion partners may be left off the protein sequences shown.

Data set [1] deals with T1, SbABI5 (rABI5) (Sorghum bicolor (inbred line IS9530)) (UniProt C5XSV4).
T1 sequence (looked up, limits assumed): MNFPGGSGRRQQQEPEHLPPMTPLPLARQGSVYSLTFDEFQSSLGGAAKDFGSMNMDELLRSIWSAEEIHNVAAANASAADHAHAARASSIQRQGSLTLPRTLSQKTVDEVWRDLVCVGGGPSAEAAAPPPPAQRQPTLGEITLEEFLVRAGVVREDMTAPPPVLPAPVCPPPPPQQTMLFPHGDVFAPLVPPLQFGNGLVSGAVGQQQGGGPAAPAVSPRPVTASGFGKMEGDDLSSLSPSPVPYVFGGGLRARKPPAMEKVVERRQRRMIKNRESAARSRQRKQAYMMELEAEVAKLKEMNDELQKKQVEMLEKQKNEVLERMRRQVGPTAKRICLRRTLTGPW
Kind of data set: competition with a labelled probe. To be noted: 200-600 ng vs 40 ng N1, full displacement; 25 mM Tris-HCl pH 7.4, 30 mM KCl, 3 mM MgCl2, 0.5 mM EDTA, 14 mM 2-mercaptoethanol, 1 mM DTT, 10% glycerol, 0.05% NP-40, 10 ug/ml BSA, 50 ug/ml salmon sperm DNA; recombinant protein; protein details: C-terminal His (pET24a).

Data set [2] addresses T2, SbABI4 (rABI4) (Sorghum bicolor (inbred line IS9530)) (UniProt A0A1B6P7N1). Kind of data set: competition with a labelled probe. As to conditions: 200-600 ng vs 40 ng N1, full displacement; 25 mM Tris-HCl pH 7.4, 30 mM KCl, 3 mM MgCl2, 0.5 mM EDTA, 14 mM 2-mercaptoethanol, 1 mM DTT, 10% glycerol, 0.05% NP-40, 10 ug/ml BSA, 50 ug/ml salmon sperm DNA; recombinant protein; protein details: C-terminal His (pET24a).

The target of data set [3] is T1, SbABI5 (rABI5) (Sorghum bicolor (inbred line IS9530)). Description: EMSA. As to conditions: 25 mM Tris-HCl pH 7.4, 30 mM KCl, 3 mM MgCl2, 0.5 mM EDTA, 14 mM 2-mercaptoethanol, 1 mM DTT, 10% glycerol, 0.05% NP-40, 10 ug/ml BSA, recombinant protein, protein details: C-terminal His (pET24a), label: 5'-biotin on strand 1.
Data set [4] concerns the target T2, SbABI4 (rABI4) (Sorghum bicolor (inbred line IS9530)). Description: EMSA. As to conditions: 25 mM Tris-HCl pH 7.4, 30 mM KCl, 3 mM MgCl2, 0.5 mM EDTA, 14 mM 2-mercaptoethanol, 1 mM DTT, 10% glycerol, 0.05% NP-40, 10 ug/ml BSA, recombinant protein, protein details: C-terminal His (pET24a), label: 5'-biotin on strand 1.
[5] abbreviates: two complexes, 50 ug/ml salmon sperm DNA.
The mark [6] stands for this setting: only traces of complex, 50 ug/ml salmon sperm DNA.

“GGGCGCCGTGGGAAAACTGCTATTGGCCGGCGTGCCATCGCCTCGTATCGTATGCGTCTCCCATGGAGCCATGCATGCAGCGCGGCGGGCCGACCTGCCACCGGTGGATCGCGTCCGGACACGTCGCGCCCCGGACCCCGACTGCCCTGGCTCCATCGGCACCGTGCACCCAAAGCGATCCCACCCCCGATGCATCCTTTTCGTCTCCCTGTCAGCTGGGTCCCATCCAGCCAGGTGCCGCC (double strand) [SbGA2ox3 242 bp unlabelled specific competitor]”: the binding result in data set [1] and in data set [2] was “binds” throughout.
“GGGCGCCGTGGGAAAACTGCTATTGGCCGGCGTGCCATCGCCTCGTATCGTATGCGTCTCCCATGGAGCCATGCATGCAGCGCGGCGGGCCGACCTGCCACCGGTGGATCGCGTCCGGACACGTCGCGCCCCGGACCCCGACTGCCCTGGCTCCATCGGCACCGTGCACCCAAAGCGATCCCACCCCCGATGCATCCTTTTCGTCTCCCTGTCAGCTGGGTCCCATCCAGCCAGGTGCCGCC (double strand) [SbGA2ox3 promoter probe 242 bp]”: the binding result in data set [3] (setting [5]) and in data set [4] (setting [5]) was “binds” throughout.
With “GGGCGCCGTGGGAAAACTGCTATTGGCCGGCGTGCCATCGCCTCGTATCGTATGCGTCTCCCATGGAGCCATGCATGCAGCGCGGCGGGCCGACCTGCTTCCGGTGGATCGCGT (double strand) [SbGA2ox3 probe c (mutated CE, no ABRE)]”, the binding result in data set [3] (setting [6]) and in data set [4] (setting [6]) was “binds more weakly” throughout.
Regarding “GGGCGCCGTGGGAAAACTGCTATTGGCCGGCGTGCCATCGCCTCGTATCGTATGCGTCTCCCATGGAGCCATGCATGCAGCGCGGCGGGCCGACCTGCCACCGGTGGATCGCGTCCGGACAATTCGCGCCC (double strand) [SbGA2ox3 probe b (mutated ABRE)]”, the binding result in data set [3] (50 ug/ml salmon sperm …) and in data set [4] (50 ug/ml salmon sperm …) was “binds more weakly” in each case.
